In patent publication US4255585A, “Benzoheterocyclic derivatives of phenoxyacetic acid” (Centre European de Recherches Pharmacologique, priority 1975, dated 1981):

Experiment: in vivo
Conditions: mouse, po, male Swiss C.D. mice, per os, mortality after 48 hours, read-out: LD 50 per os
Description: The three compounds were administered in the usual way to lots of 10 male mice (Swiss C.D.) of average weight 20 g. Mortality was assessed after 48 hours for toxicity per os.

Compound: NS(=O)(=O)c1cc(C(=O)O)c(NCc2ccco2)cc1Cl [furosemide, reference compound]
- LD50 at 48 h: 1120 mg/kg
